Negatives hold for the conditions tested. Where a protein sequence is shown, tags need not be part of it.
Target: T1, MutL WT (Escherichia coli) (UniProt P23367)
T1 sequence (looked up): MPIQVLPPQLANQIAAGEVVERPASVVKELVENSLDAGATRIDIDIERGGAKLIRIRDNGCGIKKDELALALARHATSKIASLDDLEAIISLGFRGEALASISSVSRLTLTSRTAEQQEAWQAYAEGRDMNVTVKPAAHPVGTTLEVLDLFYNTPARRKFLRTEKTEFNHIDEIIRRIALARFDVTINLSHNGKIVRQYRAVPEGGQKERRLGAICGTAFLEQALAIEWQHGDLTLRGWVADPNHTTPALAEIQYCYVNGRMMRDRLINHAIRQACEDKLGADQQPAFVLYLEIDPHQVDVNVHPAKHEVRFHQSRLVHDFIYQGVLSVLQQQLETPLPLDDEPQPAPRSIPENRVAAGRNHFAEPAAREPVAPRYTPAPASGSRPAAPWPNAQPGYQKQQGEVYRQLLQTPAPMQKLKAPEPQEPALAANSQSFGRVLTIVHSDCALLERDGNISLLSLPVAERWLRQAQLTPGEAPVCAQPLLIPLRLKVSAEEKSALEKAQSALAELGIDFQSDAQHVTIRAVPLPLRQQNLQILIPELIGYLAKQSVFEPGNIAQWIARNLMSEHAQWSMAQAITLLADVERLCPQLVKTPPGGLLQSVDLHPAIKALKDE
Test: fluorescence anisotropy
Conditions: no nucleotide; FA: 20 mM HEPES pH 7.5, 150 mM NaCl, 5 mM MgCl2, 0.08% Tween 20, 20% glycerol, 2 mM DTT, 5 nM DNA, 25 C; recombinant protein; residues 1-615; label: 5'-FAM on primer S8

Sequence: AAGTGTCTGTCGTTTTAAGGACGAAGGACTC / GAGTCCTTCGTCCTT [3' resected primer/template junction]
- binding result: no binding
